These are yes or no findings as the source states them, for the method shown. Binding seen in cells or lysates may run through a third protein. Some binding calls cover weakened binding; strength is not graded here.
Experiments:
[1] = biological target: T1, Lymphoid Specific Helicase (LSH) (human (endogenous in PC3)) (UniProt Q9NRZ9); assay: co-IP
T1 sequence: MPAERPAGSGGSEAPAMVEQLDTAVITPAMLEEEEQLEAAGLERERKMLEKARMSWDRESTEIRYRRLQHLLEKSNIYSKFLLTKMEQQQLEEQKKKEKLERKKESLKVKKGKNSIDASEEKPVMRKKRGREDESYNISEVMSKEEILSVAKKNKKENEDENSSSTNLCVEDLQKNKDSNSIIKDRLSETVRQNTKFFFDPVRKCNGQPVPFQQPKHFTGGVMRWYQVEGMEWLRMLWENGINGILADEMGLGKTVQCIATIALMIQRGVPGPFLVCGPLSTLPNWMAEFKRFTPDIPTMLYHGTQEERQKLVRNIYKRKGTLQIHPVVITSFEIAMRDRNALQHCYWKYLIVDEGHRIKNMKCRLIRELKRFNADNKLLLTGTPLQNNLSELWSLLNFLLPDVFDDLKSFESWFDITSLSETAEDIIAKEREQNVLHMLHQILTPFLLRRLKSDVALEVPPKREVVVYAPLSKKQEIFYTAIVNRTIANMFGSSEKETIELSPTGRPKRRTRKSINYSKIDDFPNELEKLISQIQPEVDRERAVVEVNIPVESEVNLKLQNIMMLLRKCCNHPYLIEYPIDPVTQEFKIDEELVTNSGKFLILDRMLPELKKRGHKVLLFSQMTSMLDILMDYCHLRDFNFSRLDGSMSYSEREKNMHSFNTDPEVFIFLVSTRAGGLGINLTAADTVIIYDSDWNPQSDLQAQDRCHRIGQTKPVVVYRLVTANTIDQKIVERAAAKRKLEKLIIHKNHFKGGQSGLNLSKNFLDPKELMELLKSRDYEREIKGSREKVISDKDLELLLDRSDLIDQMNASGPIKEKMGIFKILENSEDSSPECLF

Amino acid sequences for entries named in this document (tags omitted).
UniProt O00716: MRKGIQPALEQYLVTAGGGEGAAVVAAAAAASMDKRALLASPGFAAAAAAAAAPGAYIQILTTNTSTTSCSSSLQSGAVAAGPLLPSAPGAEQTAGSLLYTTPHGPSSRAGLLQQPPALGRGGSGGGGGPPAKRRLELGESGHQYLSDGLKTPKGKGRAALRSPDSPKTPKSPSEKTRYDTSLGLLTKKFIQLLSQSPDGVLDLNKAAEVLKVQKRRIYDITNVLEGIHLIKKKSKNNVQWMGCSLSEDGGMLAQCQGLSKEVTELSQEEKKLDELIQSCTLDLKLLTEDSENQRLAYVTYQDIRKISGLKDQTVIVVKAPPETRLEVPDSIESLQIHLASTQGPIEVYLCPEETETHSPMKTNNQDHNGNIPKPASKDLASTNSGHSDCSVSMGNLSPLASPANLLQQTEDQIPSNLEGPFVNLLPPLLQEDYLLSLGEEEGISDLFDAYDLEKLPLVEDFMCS
UniProt Q9BXW9: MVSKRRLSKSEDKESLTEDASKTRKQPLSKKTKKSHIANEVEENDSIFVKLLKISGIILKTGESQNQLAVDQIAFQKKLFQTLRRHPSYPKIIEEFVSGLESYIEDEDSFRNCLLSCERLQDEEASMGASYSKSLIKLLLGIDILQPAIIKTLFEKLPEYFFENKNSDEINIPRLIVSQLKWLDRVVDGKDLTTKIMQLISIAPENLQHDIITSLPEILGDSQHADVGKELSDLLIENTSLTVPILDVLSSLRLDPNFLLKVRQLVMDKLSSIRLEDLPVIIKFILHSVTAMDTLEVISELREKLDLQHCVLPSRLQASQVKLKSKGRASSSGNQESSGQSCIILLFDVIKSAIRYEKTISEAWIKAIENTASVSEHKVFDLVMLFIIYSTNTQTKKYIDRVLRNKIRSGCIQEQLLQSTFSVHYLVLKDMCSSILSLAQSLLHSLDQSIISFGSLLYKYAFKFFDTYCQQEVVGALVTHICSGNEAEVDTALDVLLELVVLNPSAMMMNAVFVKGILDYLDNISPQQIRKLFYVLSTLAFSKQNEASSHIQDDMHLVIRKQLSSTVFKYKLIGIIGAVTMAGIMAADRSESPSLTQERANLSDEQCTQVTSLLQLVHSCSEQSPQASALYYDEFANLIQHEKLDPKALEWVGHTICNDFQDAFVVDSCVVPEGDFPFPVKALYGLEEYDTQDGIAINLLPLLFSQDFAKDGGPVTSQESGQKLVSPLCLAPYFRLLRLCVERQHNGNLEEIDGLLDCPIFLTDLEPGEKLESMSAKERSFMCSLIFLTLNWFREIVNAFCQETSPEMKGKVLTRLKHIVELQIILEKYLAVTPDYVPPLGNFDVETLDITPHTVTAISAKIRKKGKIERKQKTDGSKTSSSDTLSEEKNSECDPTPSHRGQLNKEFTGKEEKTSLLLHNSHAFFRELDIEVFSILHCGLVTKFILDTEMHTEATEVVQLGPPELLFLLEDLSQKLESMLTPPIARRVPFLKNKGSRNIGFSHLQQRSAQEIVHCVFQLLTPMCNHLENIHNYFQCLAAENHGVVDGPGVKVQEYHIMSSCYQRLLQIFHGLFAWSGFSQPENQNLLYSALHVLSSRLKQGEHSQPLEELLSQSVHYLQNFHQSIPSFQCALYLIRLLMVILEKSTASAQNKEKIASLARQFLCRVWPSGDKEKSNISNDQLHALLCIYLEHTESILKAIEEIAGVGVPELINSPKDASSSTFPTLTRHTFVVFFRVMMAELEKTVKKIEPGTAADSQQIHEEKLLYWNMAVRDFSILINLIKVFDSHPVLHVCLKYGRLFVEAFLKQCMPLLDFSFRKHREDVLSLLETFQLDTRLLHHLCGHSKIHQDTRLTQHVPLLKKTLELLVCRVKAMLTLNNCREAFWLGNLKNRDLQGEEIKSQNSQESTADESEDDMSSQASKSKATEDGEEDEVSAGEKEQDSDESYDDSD
UniProt P01106: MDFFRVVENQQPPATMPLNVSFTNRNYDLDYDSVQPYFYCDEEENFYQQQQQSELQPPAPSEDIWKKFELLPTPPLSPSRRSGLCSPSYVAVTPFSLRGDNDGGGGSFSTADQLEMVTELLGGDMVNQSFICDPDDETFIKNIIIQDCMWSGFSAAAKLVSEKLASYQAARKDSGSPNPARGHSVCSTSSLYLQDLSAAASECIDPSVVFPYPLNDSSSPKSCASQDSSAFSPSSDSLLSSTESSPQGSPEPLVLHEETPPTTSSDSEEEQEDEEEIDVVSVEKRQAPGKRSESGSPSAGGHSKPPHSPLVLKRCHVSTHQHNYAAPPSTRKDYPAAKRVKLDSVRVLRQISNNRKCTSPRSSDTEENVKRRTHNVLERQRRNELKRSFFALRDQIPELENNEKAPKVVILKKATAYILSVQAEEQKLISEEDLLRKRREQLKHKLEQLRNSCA
UniProt P15927: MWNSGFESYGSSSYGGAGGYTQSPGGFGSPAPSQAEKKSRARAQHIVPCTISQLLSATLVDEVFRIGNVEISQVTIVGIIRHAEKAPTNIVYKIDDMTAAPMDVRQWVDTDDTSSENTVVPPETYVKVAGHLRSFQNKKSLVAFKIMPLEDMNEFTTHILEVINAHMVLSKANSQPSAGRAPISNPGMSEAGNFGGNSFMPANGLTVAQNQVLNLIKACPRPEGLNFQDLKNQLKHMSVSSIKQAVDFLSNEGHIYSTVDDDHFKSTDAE

[2] = biological target: T1, Lymphoid Specific Helicase (LSH) (human (endogenous in PC3)); assay: proximity ligation

binding [1]	binding [2]	Substance
binds	–	E2F3 (from UniProt O00716 1-465)
–	binds	FANCD2 (from UniProt Q9BXW9 1-1451)
binds	–	MYC (from UniProt P01106 1-454)
–	binds	RPA phosphorylated at Ser4/8 (RPA32-S4/8P) (from UniProt P15927 1-270)
